Source: PubChem BioAssay AID602313 (National Center for Advancing Translational Sciences (NCATS), 2012)
About 760 (0.19%) of roughly 390,000 compounds were called active. Inconclusive means that the source gave no clear call. Such entries were picked first, then a sample of the others. The call rests on the fitted dose curve; in most records, active means well fitted inhibition curve with a large enough effect; inconclusive means small, poorly fitted or top-dose-only effect; inactive means flat fitted curve, though single readings scatter. Potencies of inconclusive entries are doubtful fits and often do not repeat.
Potency means the concentration at half of the fitted maximal effect.

Experiment: qHTS for Inhibitors of Vif-A3F Interactions: qHTS; further: nearly all actives have a fitted effect of over 65% in size; on activity, negative = active: % of control where 0% means no effect
Conditions: HeLa A3F-eYFP + Vif (tagged APOBEC3F with the HIV-1 protein that degrades it), YFP fluorescence increase; series mostly up to 46.1 µM; activity, negative = active: at the top concentration
In short: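 HeLa cells stably expressing A3F-eYFP plus Vif, plated and incubated overnight at 37 deg C, then exposed to compounds overnight at 37 deg C. Blocked degradation read as raised yellow fluorescence (Ex 488/Em 500-530).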
With O=C(CCN1C(=O)/C(=C/c2ccccc2F)SC1=S)NC1C=CS(=O)(=O)C1 (stereo unspecified) the Potency was inconclusive: 3.98 µM [inhibitor, partial curve, poor fit].
For CCN(CC)c1ccc(N2C(=O)CSC2=S)cc1, the “activity, negative = active” value was inactive: 0.394%.
With O=C1Nc2ccccc2C1=Nc1ccc(F)cc1 the Potency was inconclusive: 7.08 µM [inhibitor, partial curve, poor fit].
In the case of COc1ccc(Nc2cc(C)c3cc(NC(=O)c4cc(OC)cc(OC)c4)ccc3n2)cc1, the Potency is reported as inconclusive: 10 µM [inhibitor, partial curve, poor fit].
For CC(C)[C@H](NC(=O)OCc1ccccc1)C(=O)OCC(=O)NCc1ccco1, the Potency was inconclusive: 2.24 µM [inhibitor, partial curve, poor fit].
With O=C(CSc1n[nH]c(-c2ccncc2)n1)Nc1ccc(Cl)cc1 the Potency was inconclusive: 6.31 µM [inhibitor, single point].
In the case of CCNC(=S)N/N=C1\CCCCc2ccccc21, the Potency is reported as inconclusive: 5.01 µM [inhibitor, single point].
In the case of Cc1ccc(C(=O)NNC(=O)CSc2nnc(C3CC3)n2C)cc1, the Potency is reported as inconclusive: 22.4 µM [inhibitor, single point].
In the case of Cc1nn(C)c2c1c(-c1ccccc1)cc(=O)n2Cc1ccc(Cl)cc1, the “activity, negative = active” value is reported as inactive: 3.02%.
For O=C(Nc1ccc(CN2CCOCC2)cc1)c1ccc(-c2ccc(Br)cc2)o1, the Potency was inconclusive: 6.31 µM [inhibitor, single point].
For O=C(NC(=S)N1CCc2ccccc21)c1ccc(Br)o1, the Potency was inconclusive: 3.16 µM [inhibitor, partial curve, poor fit].
In the case of COc1ccc(-c2cc(C(F)(F)F)c(C#N)c(SCC(=O)Nc3ccccc3F)n2)cc1, the “activity, negative = active” value is reported as inactive: 0.918%.
For C=C(C)C1CC=C(C)/C(=N/NC(=O)COc2ccc(C)cc2)C1 (stereo unspecified), the “activity, negative = active” value was inactive: -0.286%.
With S=c1[nH]nc(C2CCCCC2)n1/N=C/c1ccccc1Br the Potency was inconclusive: 2.51 µM [inhibitor, full curve, poor fit].
With CCNC(=S)/N=C(/Nc1ccccc1)Nc1nc(C)cc(C)n1 the Potency was inconclusive: 17.8 µM [inhibitor, partial curve, poor fit].
In the case of COc1ccc(CCN(C)Cc2c(O)ccc3ccccc23)cc1OC, the Potency is reported as inconclusive: 22.4 µM [inhibitor, single point].
For c1ccc2nc3c(nc2c1)c1ccccc1n3CCN1CCOCC1, the Potency was inconclusive: 35.5 µM [inhibitor, single point].
In the case of COc1cc(N(C)C)ccc1C=c1c2ccccc2n2c1cc(-c1ccccc1)[n+]2C, the Potency is reported as inconclusive: 35.5 µM [inhibitor, single point].
With Cc1cc(C[n+]2ncsc2N)c2ncccc2c1 the “activity, negative = active” value was inactive: 1.03%.
With O=C(COC(=O)c1cnccn1)c1ccc([N+](=O)[O-])cc1 the Potency was inconclusive: 12.6 µM [inhibitor, single point].
In the case of COc1ccccc1NC(=O)c1cnc(Nc2ccccc2OC)c2ccccc12, the Potency is reported as inconclusive: 6.31 µM [inhibitor, partial curve, poor fit].
With Cc1cc2cc(C#N)c(SCC(=O)Nc3nonc3C)nc2cc1C the Potency was active: 10 µM.
In the case of COc1ccc(C(=O)Oc2cc(-c3ccc4c(c3)OCO4)cc(=O)c3c(C)oc(C)c23)cc1, the Potency is reported as inconclusive: 12.6 µM [inhibitor, partial curve, poor fit].
With Cc1cc(SCC(=O)NCC2CCCO2)nc2ccccc12 (stereo unspecified) the Potency was inconclusive: 20 µM [inhibitor, partial curve, poor fit].
With O=c1[nH]c(=S)[nH]nc1Cc1ccc(Cl)c(Cl)c1 the Potency was inconclusive: 6.31 µM [inhibitor, single point].
For COc1ccccc1NC(=S)N(Cc1ccco1)Cc1cc2ccc(C)c(C)c2[nH]c1=O, the Potency was inconclusive: 6.31 µM [inhibitor, single point].
With O=C(COc1ccccc1Br)NC(=O)NC1CCCC1 the Potency was inconclusive: 0.562 µM [inhibitor, full curve, poor fit].
In the case of CCOC(=O)c1cc(-c2ccccc2)n(CC(=O)Nc2ccc(OC)cc2OC)c1C, the Potency is reported as inconclusive: 35.5 µM [inhibitor, single point].
With Cc1ccc(-n2c(O)c(/C=C3/C(c4ccccc4)=Nc4ccccc43)c(=O)[nH]c2=O)cc1 the “activity, negative = active” value was inactive: 1.94%.
In the case of CSc1cccc(-c2nnc(NC(=O)c3ccc4c(c3)OCCO4)o2)c1, the Potency is reported as inconclusive: 17.8 µM [inhibitor, partial curve, poor fit].
With NC(=O)C1CCCN(CC(O)COCc2ccc(Cl)cc2)C1 (stereo unspecified) the Potency was inconclusive: 6.31 µM [inhibitor, single point].
For Cc1cc([N+](=O)[O-])cc(/C=N/n2c(C)nc3ccccc3c2=O)c1O, the Potency was inconclusive: 35.5 µM [inhibitor, single point].
In the case of CC(C)CCC(CCN1CCOCC1)c1ccc2c(c1)OCO2 (stereo unspecified), the Potency is reported as inconclusive: 35.5 µM [inhibitor, single point].
In the case of C=C1C(O)[C@@H]2O[C@]3(CC[C@H](/C=C/C(C)[C@@H]4CC(C)=CC5(O[C@H](C[C@@](C)(O)CO)CCC5O)O4)O3)CC[C@H]2O[C@@H]1C(O)CC(C)[C@H]1OC2(CCCCO2)CCC1C (stereo partly specified), the Potency is reported as inconclusive: 6.31 µM [inhibitor, single point].
In the case of O=C(NC(=S)Nc1cccnc1Cl)c1ccc(Cl)cc1, the Potency is reported as inconclusive: 7.94 µM [inhibitor, partial curve, poor fit].
With Cc1ccc2[nH]cc(CCNC(=O)c3cccs3)c2c1 the Potency was inconclusive: 11.2 µM [inhibitor, partial curve, poor fit].
With CCC(=O)N1CCc2cc(S(=O)(=O)CCC(=O)Nc3ccc(Cl)c(C(F)(F)F)c3)ccc21 the “activity, negative = active” value was inactive: -7.25%.
In the case of COc1ccc(NN=Nc2ccc([N+](=O)[O-])cc2)cc1, the “activity, negative = active” value is reported as inactive: -13.3%.
In the case of COc1ccc(N=Cc2c(O)n(-c3cccc(C)n3)c(=O)c3ccccc23)c(OC)c1, the Potency is reported as active: 10 µM.
In the case of O=C(Nc1cccc(Cl)c1)c1cc(S(=O)(=O)NCCc2ccc(Cl)cc2)ccc1F, the Potency is reported as inconclusive: 35.5 µM [inhibitor, single point].
For O=C1c2cccc3c([N+](=O)[O-])ccc(c23)C(=O)N1CC1CCCO1 (stereo unspecified), the Potency was inconclusive: 15.8 µM [inhibitor, partial curve, poor fit].
